Here are results for 34 molecules from patent US20090093393A1.

The chains behind the UniProt entries cited, without tags or fusion partners. Where a name states a change or a piece, a line headed by the entry shows the natural chain unless it says otherwise. A line that says so, or that is headed by a name, gives the form on record, which may keep a tag or linker.
recombinant human VEGF (Biosource International) (P15692, form named): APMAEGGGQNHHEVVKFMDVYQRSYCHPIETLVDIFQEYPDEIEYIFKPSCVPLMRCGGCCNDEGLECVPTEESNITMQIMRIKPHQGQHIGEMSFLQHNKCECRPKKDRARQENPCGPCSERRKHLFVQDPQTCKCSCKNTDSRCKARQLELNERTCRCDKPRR

No constants are given. Whether binding was seen depends on the method and setting. Some results given as binding are weak or reduced against the parent protein; the word gives no strength.

The first test deals with recombinant human VEGF (Biosource International) (human) (UniProt P15692). Description: conventional phage biopanning on VEGF, 3 rounds, acid elution.
Turning to CYNLYGWTC [phage-peptide clone BP 81, …], the binding entry was “binds”.
The same measure, in the same setting: with CTLYPQFWC [phage-peptide clone BP 02, …] the entry was “binds”; with CAPWNSHIC [phage-peptide clone BP 86, …], “binds”; with CLPSWHLRC [phage-peptide clone BP 96, …], “binds”.
The same measure, in the same setting: with CPTILEWYC [phage-peptide clone BP 97, …] the entry was “binds”; with CAPWNLHIC [phage-peptide clone BP 87, …], “binds”; with CHLAPSAVC [phage-peptide clone BP 04, …], “binds”.
The same measure, in the same setting: with CNLWPHFWC [phage-peptide clone BP 83, …] the entry was “binds”.
For the molecule CSLWPAFWC [phage-peptide clone BP 84, …], the binding entry is listed as “binds”.
Still for that read-out and setting: with CSLWPHFWC [phage-peptide clone BP 85, …] the entry was “binds”.

A further test shares this target. Description: phage display selection, 2 rounds, on VEGF-coated polystyrene beads after deselection on whole human blood; PCR of target-bound phage.
Consider CATNPPPMC [phage-peptide clone V-13, …], for which the binding entry is “binds”.
On the same count and under the same terms, with CPNQSHLHC [phage-peptide clone V-17, …] the entry was “binds”; with CKMPTSKVC [phage-peptide clone V-20, …], “binds”; with CPLRTSHTC [phage-peptide clone V-9, …], “binds”.
Still for that read-out and setting: with CKWIVSETC [phage-peptide clone V-22, …] the entry was “binds”.
Still for that read-out and setting: with CITPKRPYC [phage-peptide clone V-21, …] the entry was “binds”; with CKPSSASSC [phage-peptide clone V-5, …], “binds”; with CSKHSQITC [phage-peptide clone V-1, …], “binds”.
In the case of CPVTKRVHC [phage-peptide clone V-6, …], the binding entry was “binds”.
On the same count and under the same terms, with CSGSETWMC [phage-peptide clone V-18, …] the entry was “binds”; with CNPLHTLSC [phage-peptide clone V-11, …], “binds”; with CPKADSKQC [phage-peptide clone V-16, …], “binds”.
The same measure, in the same setting: with CKHSAKAEC [phage-peptide clone V-4, …] the entry was “binds”.
On the same count and under the same terms, with CTLHWWVTC [phage-peptide clone V-7, …] the entry was “binds”; with CEATPRDTC [phage-peptide clone V-10, …], “binds”.
With CALSAPYSC [phage-peptide clone V-19, …], the binding entry is reported as “binds”.
The same measure, in the same setting: with CPYKASFYC [phage-peptide clone V-8, …] the entry was “binds”; with CKTNPSGSC [phage-peptide clone V-2, …], “binds”; with CADRSFRYC [phage-peptide clone V-15, …], “binds”.
Consider CKHERIWSC [phage-peptide clone V-12, …], for which the binding result was “binds”.
Take CPNANAPSC [phage-peptide clone V-23, …]: the binding result is recorded as “binds”.
For CSTTSPNMC [phage-peptide clone V-14, …], the binding result is given as “binds”.
Take CRPTGHSLC [phage-peptide clone V-3, …]: the binding result is listed as “binds”.
On the same count and under the same terms, with CNVQSLPLC [phage-peptide clone V-24, …] the entry was “binds”.
